{
  "sequences": {"note": "Chains of the proteins cited; added tags and fusions are not shown. Lines headed by an entry give the natural chain unless they say otherwise; changes in a name come on top. Residues count along the entry.", "UniProt P94217": "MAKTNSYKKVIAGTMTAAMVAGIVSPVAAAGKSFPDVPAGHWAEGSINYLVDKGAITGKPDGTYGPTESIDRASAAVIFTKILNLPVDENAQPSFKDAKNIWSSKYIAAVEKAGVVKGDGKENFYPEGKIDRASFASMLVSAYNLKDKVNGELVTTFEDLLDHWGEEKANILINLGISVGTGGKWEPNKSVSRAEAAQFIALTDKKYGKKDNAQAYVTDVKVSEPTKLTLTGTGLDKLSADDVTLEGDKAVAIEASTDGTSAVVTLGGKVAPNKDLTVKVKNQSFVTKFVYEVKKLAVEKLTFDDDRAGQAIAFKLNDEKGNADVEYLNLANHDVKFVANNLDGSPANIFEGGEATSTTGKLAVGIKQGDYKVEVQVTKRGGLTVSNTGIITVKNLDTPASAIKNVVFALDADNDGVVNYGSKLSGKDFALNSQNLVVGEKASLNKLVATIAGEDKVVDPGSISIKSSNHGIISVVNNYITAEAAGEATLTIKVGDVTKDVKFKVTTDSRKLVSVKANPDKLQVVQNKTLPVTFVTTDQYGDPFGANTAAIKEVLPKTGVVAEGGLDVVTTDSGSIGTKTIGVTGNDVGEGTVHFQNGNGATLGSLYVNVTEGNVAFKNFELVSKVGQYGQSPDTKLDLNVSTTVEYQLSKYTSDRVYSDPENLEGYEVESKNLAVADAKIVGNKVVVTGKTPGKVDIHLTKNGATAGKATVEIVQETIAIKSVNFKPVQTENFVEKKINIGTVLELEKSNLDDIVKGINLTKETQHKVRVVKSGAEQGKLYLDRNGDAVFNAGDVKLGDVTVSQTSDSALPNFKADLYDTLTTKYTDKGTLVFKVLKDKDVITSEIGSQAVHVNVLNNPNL", "UniProt P05046, residues 33-285": "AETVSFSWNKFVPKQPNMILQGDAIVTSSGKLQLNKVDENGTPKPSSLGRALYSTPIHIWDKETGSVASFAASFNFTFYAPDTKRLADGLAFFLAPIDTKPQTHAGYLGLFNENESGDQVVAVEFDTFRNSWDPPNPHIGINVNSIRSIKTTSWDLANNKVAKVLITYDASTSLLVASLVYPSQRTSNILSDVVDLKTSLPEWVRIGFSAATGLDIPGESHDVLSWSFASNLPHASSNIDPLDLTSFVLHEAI"},
  "source": "patent US20100255026A1",
  "target": "B. anthracis S-layer protein EA1 (Bacillus anthracis) (UniProt P94217)",
  "test": "lectin column purification of a urea extract of spores, SDS-PAGE (FIG. 3)",
  "note": "No constants are given. Whether binding was seen depends on the method and setting. Some binding calls cover weakened binding; strength is not graded here.",
  "data": [
    {"substance": "SBA lectin bound to agrose beads (from UniProt P05046 33-285)", "values": [
      {"measurement": "binding", "value": "binds"}
    ]}
  ]
}
